Test results published in PubChem BioAssay AID1508600 (Functional Genomics Laboratory (NCATS/FGL), 2020).
The campaign covered roughly 53,000 sequences. About 3,700 (7%) were called active.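 Rule for the calls: active = gene knockdowns whose robust z-score for IL-1 alpha signal is at least 2 or at most -2, so actives lie on both sides; inactive = the rest.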 The list shows a part of the results.

Assay: Components of the Cytosolic LPS Sensing Pathway: Gene Identification via Genome-wide siRNA Screen;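 note: robust z of the log signal after scaling to non-targeting control siRNA wells of the plate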
Conditions: RAW264.7 macrophages, IL-1a HTRF, actives lie on both sides, screened at 100 nM (by protocol), cells primed 5 h with Pam3CSK4 first
Method in brief: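 Read-out: IL-1a HTRF on supernatant, divided by plate negative-control median ×100, log-transformed and converted to robust z-score. Cells were RAW264.7 given 100 nM siRNA, Pam3CSK4-primed 5 hours, then LipidA-transfected 24 hour.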

Row | Sequence | z-score
1 | GGGAAAUUGUGUAGCAGCUTT against Slc25a29 | active: -2.76
2 | CCUUUAGUUUACAGUAAGCTT against H2-M10.1 | inactive: -0.0364
3 | GGCUUCAUAUUCUUUUCCCTT against Il31ra | inactive: -1.1
4 | CCCUUAAUCUUGCAUACUUTT against Zbtb39 | inactive: 0.338
5 | GGGACAAUAACACUGUGUCTT against Slc11a1 | inactive: -1.07
6 | GCUAUUCGAAUUCAUGCAUTT against Xpo1 | inactive: -0.388
7 | CCUCCAUCGUAUUUGACAUTT against Slc29a4 | inactive: 1.46
8 | CGUCACUGGUGGUAUCAACTT against Trcg1 | inactive: 0.783
9 | GGCAAAGAGCAAAAUUUUATT against Rap2b | inactive: 1.66
10 | GGUUAAAGUCCUUCAGUAUTT against Tubb3 | active: 2.83
11 | UAGGCGGGAAGGCAUUUUCTT against Gngt1 | inactive: 0.572
12 | CGCCCACCAGAAUAUAUAUTT against Il4i1 | inactive: -1.69
13 | GGAAAUAGAAACAACAGGATT against Nos2 | inactive: -0.756
14 | GGUGCAAAUAAACAACAGATT against Zfpl1 | inactive: -1.92
15 | GGAAGAAAACACUUGGUUUTT against Cant1 | inactive: -0.704
16 | GGGUCAGUGUGGAGAGUACTT against Col13a1 | inactive: 0.679
17 | GGAAGCAGAAUUGUAAAGATT against Hrk | inactive: -1.09
18 | GCGUGUACAAGGCUAUUCATT against Stk4 | inactive: 1.19
19 | GGUUGAUCGUGUCAUGUAGTT against Poc1b | inactive: 0.0595
20 | GCACAGCUCAACGAAUUGGTT against Otp | inactive: 0.149
21 | GAUGUCGAUGCAAAUUCAATT against Fxyd1 | inactive: 0.514
22 | GGUUUUCUUAAAAUAGGAGTT against Tat | inactive: -0.205
23 | GGCACACGGUUUUCAUUAATT against Pcdhb5 | inactive: 0.83

Four records drawn at random from the list so far, as already listed:
Row | Sequence | z-score
9 | GGCAAAGAGCAAAAUUUUATT against Rap2b | inactive: 1.66
13 | GGAAAUAGAAACAACAGGATT against Nos2 | inactive: -0.756
2 | CCUUUAGUUUACAGUAAGCTT against H2-M10.1 | inactive: -0.0364
16 | GGGUCAGUGUGGAGAGUACTT against Col13a1 | inactive: 0.679

Next part.

Row | Sequence | z-score
24 | GGGUCAUGUUUUUAAGAAGTT against Frrs1 | inactive: -1.28
25 | GGAGGUGAGUAGUAUAGAATT against Pigr | inactive: 0.998
26 | GCUCUUCCAACCACCUGUATT against Rtn4rl2 | inactive: -1.7
27 | GGUUGUUUUGCACAAAUGUTT against Olfr512 | inactive: -1.49
28 | GGAAAAGGUGGAAAAGAUATT against Rell1 | inactive: 0.238
29 | GCAUUCAGACCAUGACACUTT against Trim30d | inactive: 0.914
30 | GGCUGACAGACAAGAUUGUTT against Tfb1m | inactive: -1.3
31 | GGCAGACAGUGAGAUGACATT against Mapk12 | inactive: -0.896
32 | CGCGAAUAAACCAUUUCUGTT against A130023I24Rik | inactive: 1.02
33 | GGUCUACAACCAAAUCUGCTT against Clec7a | inactive: -0.531
34 | GGUUCGUAAAGUAAAUGAGTT against Lmbrd2 | inactive: -1.16
35 | GCUCUCGGAAUGAUUUAUATT against Acss1 | inactive: 1.14
36 | GGUAGUGAAAUUCUUAAAGTT against Snx10 | inactive: -0.154
37 | GGUUGUGGUGUACAAGAUUTT against Med18 | inactive: -0.791
38 | GGCAUGUGCUACUUACAUGTT against Ripk1 | inactive: -0.33
39 | GGAGACACUUACAUGCACGTT against Antxr1 | inactive: 1.27
40 | CGGACAAUGCAGGUUCAUCTT against Negr1 | inactive: -0.0643
41 | GGUAUCUUGCUUUCUGUGATT against Olfr847 | inactive: -1.64
42 | GGUAUUCUGGCAAGACCACTT against Aatf | inactive: 1.31
43 | GGGAAGUAUUCUGAAAUCUTT against Tsga13 | inactive: -0.0173
44 | GAUUCAGCCAUGUGGAACATT against Aim2 | inactive: -1.31
45 | GGUAAUACAACUGAGAACUTT against Zfp2 | inactive: 0.39
46 | GCUGGUAAAGGUUACGAAGTT against Crk | inactive: 0.505

Row | Sequence | z-score
47 | GGGAACCUUGCUUUUUACATT against Olfr1141 | inactive: 0.171
48 | GCACCAUUAAGGUUGCCAATT against Nudt11 | inactive: -1.16
49 | GGAGAGUCAAGUCUUUUCUTT against Dnal4 | inactive: 0.0546
50 | GGACUUCUUACUGGAAUCATT against Slc5a12 | inactive: 0.944
51 | GGGUAAAAGGCUUUUUUGUTT against St8sia6 | inactive: -0.699
52 | GGAUCGCUGGUGUGUUUUUTT against Nalcn | inactive: 0.205
53 | GGAACGCAAGAACAGAAUGTT against Rps24 | inactive: 0.585
54 | GGGCAAACCGGAAAAACAGTT against Ccdc71 | active: -2.06
55 | CCAAACAAUCUUACAGGAATT against Olfr248 | inactive: 0.236
56 | GACCAUCCUACUACUUAUGTT against Vmn1r25 | inactive: 1.06
57 | CCUCCCUGUCUAUUGUGCUTT against Slc35a2 | inactive: 1.04
58 | GGCACUCAAAUUCUACACCTT against Wasf2 | inactive: -1.63
59 | GGUGAUUCCAUUACCUAGUTT against Pde12 | inactive: 0.572
60 | GCUUAUUUUCGAUACAUGGTT against Ddx42 | inactive: -0.374
61 | GGGAAAAAUGUCUCAAACATT against Pnpla8 | inactive: -0.974
62 | CGGCCUGUACAGUCACUUATT against Zmynd12 | inactive: 1.11
63 | GGACUGGACGACAAUUAGGTT against Brms1l | inactive: -0.345
64 | CCUUAUUUGUCCAUAAAAGTT against Pkdrej | active: 2.43
65 | CCGUCCCUAUGAAAUCAGCTT against Lrat | active: 2.28
66 | GGAUCUGUACCAUAGUGACTT against Lhfp | inactive: 1.94
67 | GGACUUUUUCACUUUCAAATT against Ugt1a5 | inactive: -0.198
68 | GGCAAACUCUUCCGAUGCUTT against Zfp414 | inactive: 0.688
